Laboratory results from article doi:10.1101/2024.09.20.612365, “Preventing Inappropriate Signals Pre- and Post-Ligand Perception by a Toggle-Switch Mechanism of ERECTA” (bioRxiv, 2024).
No constants are given. Whether binding was seen depends on the method and setting. Binding seen in cells or lysates may run through a third protein. Some entries that bind do so weakly or less than the wild type. Sequences can lack the tags named with a protein.

T1: PUB30-YFP (Arabidopsis) (UniProt Q058P4)
T1 sequence: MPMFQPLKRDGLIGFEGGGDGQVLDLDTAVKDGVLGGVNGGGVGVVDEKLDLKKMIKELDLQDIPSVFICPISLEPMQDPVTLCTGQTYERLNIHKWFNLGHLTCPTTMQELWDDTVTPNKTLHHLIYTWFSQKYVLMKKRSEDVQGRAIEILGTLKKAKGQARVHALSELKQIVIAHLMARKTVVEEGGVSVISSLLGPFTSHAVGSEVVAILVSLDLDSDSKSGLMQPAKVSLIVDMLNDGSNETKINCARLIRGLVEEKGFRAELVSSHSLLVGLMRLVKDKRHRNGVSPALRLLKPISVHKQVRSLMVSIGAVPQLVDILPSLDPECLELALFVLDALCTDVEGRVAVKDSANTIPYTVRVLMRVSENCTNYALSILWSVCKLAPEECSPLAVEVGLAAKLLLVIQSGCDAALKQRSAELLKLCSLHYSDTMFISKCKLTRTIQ

T2: ER-FLAG (Arabidopsis) (UniProt Q42371)
T2 sequence: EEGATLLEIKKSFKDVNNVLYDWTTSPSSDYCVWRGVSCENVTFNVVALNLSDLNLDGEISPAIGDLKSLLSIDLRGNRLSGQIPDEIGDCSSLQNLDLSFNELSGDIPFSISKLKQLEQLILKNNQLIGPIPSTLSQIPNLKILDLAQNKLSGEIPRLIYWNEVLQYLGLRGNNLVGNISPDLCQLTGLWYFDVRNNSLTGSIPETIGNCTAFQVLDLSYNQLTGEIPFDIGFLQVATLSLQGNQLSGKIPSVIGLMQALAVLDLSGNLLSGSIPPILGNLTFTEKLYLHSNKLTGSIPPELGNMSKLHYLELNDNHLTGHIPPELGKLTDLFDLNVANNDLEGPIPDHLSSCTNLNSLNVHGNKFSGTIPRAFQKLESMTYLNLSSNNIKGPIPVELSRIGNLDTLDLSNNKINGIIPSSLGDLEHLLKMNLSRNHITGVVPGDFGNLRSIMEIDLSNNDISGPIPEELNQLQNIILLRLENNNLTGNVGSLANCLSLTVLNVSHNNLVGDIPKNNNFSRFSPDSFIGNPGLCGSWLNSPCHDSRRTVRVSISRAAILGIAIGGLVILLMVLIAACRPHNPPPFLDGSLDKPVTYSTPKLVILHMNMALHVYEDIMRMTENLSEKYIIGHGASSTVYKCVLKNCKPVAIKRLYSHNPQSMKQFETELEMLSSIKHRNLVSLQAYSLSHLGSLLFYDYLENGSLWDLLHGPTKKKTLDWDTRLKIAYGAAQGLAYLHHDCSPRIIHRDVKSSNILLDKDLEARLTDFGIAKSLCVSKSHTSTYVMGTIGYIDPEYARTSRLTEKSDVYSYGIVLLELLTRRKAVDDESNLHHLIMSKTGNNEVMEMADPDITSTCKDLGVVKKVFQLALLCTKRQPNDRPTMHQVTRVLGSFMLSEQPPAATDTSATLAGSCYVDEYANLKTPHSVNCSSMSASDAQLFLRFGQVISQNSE

T3: ER_(T/S8A)-FLAG, phosphonull version (Arabidopsis) (UniProt Q42371)
T3 sequence: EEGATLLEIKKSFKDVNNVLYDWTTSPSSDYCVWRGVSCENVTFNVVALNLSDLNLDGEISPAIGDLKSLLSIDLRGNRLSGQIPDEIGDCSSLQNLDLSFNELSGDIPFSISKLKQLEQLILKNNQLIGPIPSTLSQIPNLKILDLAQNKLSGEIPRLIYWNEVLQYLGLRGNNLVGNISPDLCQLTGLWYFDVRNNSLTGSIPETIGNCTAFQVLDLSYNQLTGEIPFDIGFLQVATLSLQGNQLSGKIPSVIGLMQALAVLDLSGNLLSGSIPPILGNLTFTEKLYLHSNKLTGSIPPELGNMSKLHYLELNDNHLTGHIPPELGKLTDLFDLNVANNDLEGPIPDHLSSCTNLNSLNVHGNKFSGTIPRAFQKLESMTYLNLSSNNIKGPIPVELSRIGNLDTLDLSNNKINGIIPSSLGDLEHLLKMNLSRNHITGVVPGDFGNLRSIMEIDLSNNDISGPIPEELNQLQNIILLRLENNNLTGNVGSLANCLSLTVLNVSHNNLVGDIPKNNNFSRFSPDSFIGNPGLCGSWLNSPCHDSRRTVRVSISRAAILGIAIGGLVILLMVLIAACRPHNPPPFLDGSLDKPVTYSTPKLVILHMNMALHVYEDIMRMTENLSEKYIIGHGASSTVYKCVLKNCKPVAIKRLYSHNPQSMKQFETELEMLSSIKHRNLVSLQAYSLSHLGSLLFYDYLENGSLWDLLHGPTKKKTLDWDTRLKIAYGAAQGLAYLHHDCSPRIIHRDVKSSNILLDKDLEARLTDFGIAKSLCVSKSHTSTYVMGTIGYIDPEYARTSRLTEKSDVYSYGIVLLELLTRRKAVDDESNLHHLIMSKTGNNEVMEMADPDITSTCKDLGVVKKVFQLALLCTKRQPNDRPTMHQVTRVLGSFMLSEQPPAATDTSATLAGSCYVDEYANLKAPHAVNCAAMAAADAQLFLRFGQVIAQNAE

T4: ER_(T/S8E)-FLAG, phosphomimetic version (Arabidopsis) (UniProt Q42371)
T4 sequence: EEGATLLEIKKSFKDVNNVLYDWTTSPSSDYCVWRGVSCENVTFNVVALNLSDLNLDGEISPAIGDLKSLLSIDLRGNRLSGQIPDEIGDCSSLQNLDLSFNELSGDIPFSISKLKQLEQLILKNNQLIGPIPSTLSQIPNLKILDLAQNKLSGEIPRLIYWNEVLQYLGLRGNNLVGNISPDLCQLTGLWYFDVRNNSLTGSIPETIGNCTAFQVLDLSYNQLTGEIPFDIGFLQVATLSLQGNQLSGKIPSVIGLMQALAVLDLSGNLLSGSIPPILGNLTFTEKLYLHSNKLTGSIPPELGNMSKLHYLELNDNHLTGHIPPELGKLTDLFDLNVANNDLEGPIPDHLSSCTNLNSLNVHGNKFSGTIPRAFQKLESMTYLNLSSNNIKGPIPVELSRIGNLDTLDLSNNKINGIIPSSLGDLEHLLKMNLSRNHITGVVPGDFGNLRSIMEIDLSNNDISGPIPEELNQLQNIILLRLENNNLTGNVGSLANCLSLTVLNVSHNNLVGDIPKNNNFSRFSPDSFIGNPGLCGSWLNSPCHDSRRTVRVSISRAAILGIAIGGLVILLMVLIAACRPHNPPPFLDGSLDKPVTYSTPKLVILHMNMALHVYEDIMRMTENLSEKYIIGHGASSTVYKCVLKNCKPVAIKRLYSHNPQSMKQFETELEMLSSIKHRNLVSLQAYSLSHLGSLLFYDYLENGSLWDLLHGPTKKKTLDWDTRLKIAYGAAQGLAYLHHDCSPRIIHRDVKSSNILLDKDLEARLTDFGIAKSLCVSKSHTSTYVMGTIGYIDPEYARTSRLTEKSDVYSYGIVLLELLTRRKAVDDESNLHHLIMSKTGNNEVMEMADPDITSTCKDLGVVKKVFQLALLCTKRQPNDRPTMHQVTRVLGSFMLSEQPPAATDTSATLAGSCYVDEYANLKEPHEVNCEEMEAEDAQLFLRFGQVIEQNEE


Experiments:
PUB30-YFP (Arabidopsis) = target: T1, PUB30-YFP (Arabidopsis); assay: co-IP; proteins from transgenic Arabidopsis plants (PUB30pro::PUB30-YFP with ERpro::ER-FLAG variants) immunoprecipitated with anti-GFP beads, blots with anti-GFP and anti-FLAG
ER-FLAG (Arabidopsis) = target: T2, ER-FLAG (Arabidopsis); assay: co-IP; Arabidopsis protoplasts co-transfected with PUB30-MYC or PUB31-MYC and ER-FLAG variants; 5 μM EPFL6 for 1 h; immunoprecipitated with anti-FLAG beads, blots with anti-FLAG and anti-MYC
[1] = target: T3, ER_(T/S8A)-FLAG, phosphonull version (Arabidopsis); assay: as above
[2] = target: T4, ER_(T/S8E)-FLAG, phosphomimetic version (Arabidopsis); assay: as above

| binding (PUB30-YFP (Arabidopsis)) | binding (ER-FLAG (Arabidopsis)) | binding [1] | binding [2] | Binder |
| --- | --- | --- | --- | --- |
| binds | – | – | – | ER-FLAG (receptor, UniProt Q42371 25-976) EEGATLLEIKKSFKDVNNVLYDWTTSPSSDYCVWRGVSCENVTFNVVALNLSDLNLDGEISPAIGDLKSLLSIDLRGNRLSGQIPDEIGDCSSLQNLDLSFNELSGDIPFSISKLKQLEQLILKNNQLIGPIPSTLSQIPNLKILDLAQNKLSGEIPRLIYWNEVLQYLGLRGNNLVGNISPDLCQLTGLWYFDVRNNSLTGSIPETIGNCTAFQVLDLSYNQLTGEIPFDIGFLQVATLSLQGNQLSGKIPSVIGLMQALAVLDLSGNLLSGSIPPILGNLTFTEKLYLHSNKLTGSIPPELGNMSKLHYLELNDNHLTGHIPPELGKLTDLFDLNVANNDLEGPIPDHLSSCTNLNSLNVHGNKFSGTIPRAFQKLESMTYLNLSSNNIKGPIPVELSRIGNLDTLDLSNNKINGIIPSSLGDLEHLLKMNLSRNHITGVVPGDFGNLRSIMEIDLSNNDISGPIPEELNQLQNIILLRLENNNLTGNVGSLANCLSLTVLNVSHNNLVGDIPKNNNFSRFSPDSFIGNPGLCGSWLNSPCHDSRRTVRVSISRAAILGIAIGGLVILLMVLIAACRPHNPPPFLDGSLDKPVTYSTPKLVILHMNMALHVYEDIMRMTENLSEKYIIGHGASSTVYKCVLKNCKPVAIKRLYSHNPQSMKQFETELEMLSSIKHRNLVSLQAYSLSHLGSLLFYDYLENGSLWDLLHGPTKKKTLDWDTRLKIAYGAAQGLAYLHHDCSPRIIHRDVKSSNILLDKDLEARLTDFGIAKSLCVSKSHTSTYVMGTIGYIDPEYARTSRLTEKSDVYSYGIVLLELLTRRKAVDDESNLHHLIMSKTGNNEVMEMADPDITSTCKDLGVVKKVFQLALLCTKRQPNDRPTMHQVTRVLGSFMLSEQPPAATDTSATLAGSCYVDEYANLKTPHSVNCSSMSASDAQLFLRFGQVISQNSE |
| – | binds | binds weakly | binds | PUB31-MYC (enzyme, UniProt Q9FHN9 1-444) MPMFQPSKNGGFDGHILDLHSAVKDGVLGGGDGKFLVVVTDEKKKLDLKEMISELELPEIPSVFICPISLEPMQDPVTLCTGQTYERSNILKWFNIGHCTCPTTMQELWDDLVTPNKTLHQLIYTWFSQKYVLMKKRSEDVQGRAIEILGTLRKAKGKAKVHALSELKQVVMAHAIAKKTVVDEGGVFVISSLLSPFTSHAVGSEAIAILVNLELDSDSKAGLMQPARVSLMVDMLNDGSIETKINCARLIGRLVEEKGFRAELVSSHSLLVGLMRLVKDRRRRNGVSPALTLLKSVSVHKQVRNLLVRIGAVPQLVDVLPCLDVECLESALFVLDSLCLESEGRIALKDSVNTIPHTVRLLMKVSEKCTNYAISILWSVCKLASEECSSLAVEVGLAAKLLLVIQSGCDPALKQRSAELLKLCSLHYSDSMFISKCKLTRTIQ |
| – | binds | binds weakly | binds | GST-PUB30 (plant U-box E3 ligase PUB30) (enzyme) MPMFQPLKRDGLIGFEGGGDGQVLDLDTAVKDGVLGGVNGGGVGVVDEKLDLKKMIKELDLQDIPSVFICPISLEPMQDPVTLCTGQTYERLNIHKWFNLGHLTCPTTMQELWDDTVTPNKTLHHLIYTWFSQKYVLMKKRSEDVQGRAIEILGTLKKAKGQARVHALSELKQIVIAHLMARKTVVEEGGVSVISSLLGPFTSHAVGSEVVAILVSLDLDSDSKSGLMQPAKVSLIVDMLNDGSNETKINCARLIRGLVEEKGFRAELVSSHSLLVGLMRLVKDKRHRNGVSPALRLLKPISVHKQVRSLMVSIGAVPQLVDILPSLDPECLELALFVLDALCTDVEGRVAVKDSANTIPYTVRVLMRVSENCTNYALSILWSVCKLAPEECSPLAVEVGLAAKLLLVIQSGCDAALKQRSAELLKLCSLHYSDTMFISKCKLTRTIQ |
